Results are given in words; binding and its absence hold for the method and conditions named. In cells and extracts the contact can be indirect. A yes stands for co-enrichment or nearness to the bait. Other partners may have been found. Where a sequence is shown, tags or fusion partners need not be part of it.
Biological target: T1, human Wuho protein (hWH) tagged with V5 and hexahistidine epitopes (human) (UniProt P57081)
T1 sequence: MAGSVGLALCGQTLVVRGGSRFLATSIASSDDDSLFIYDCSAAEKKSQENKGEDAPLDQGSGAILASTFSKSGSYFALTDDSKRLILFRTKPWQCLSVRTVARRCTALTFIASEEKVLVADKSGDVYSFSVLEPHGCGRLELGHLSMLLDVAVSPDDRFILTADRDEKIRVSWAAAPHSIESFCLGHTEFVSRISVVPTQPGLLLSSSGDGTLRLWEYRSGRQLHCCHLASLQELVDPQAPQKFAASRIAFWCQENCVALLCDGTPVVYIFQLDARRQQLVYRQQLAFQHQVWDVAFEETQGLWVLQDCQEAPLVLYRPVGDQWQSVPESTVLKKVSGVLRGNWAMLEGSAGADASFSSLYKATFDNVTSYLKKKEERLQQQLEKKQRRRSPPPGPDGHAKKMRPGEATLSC
Assay: affinity purification with mass spectrometry; nuclear extract of tetracycline-induced Flp-In-293 cells expressing hWH-V5-His6, anti-V5 agarose beads, 4°C overnight, NE buffer (20 mM Hepes pH 7.9, 400 mM NaCl, 0.2% NP-40); gel bands identified by mass spectrometry

By UniProt entry, the sequences of proteins in these tests, tags left out.
UniProt P39748: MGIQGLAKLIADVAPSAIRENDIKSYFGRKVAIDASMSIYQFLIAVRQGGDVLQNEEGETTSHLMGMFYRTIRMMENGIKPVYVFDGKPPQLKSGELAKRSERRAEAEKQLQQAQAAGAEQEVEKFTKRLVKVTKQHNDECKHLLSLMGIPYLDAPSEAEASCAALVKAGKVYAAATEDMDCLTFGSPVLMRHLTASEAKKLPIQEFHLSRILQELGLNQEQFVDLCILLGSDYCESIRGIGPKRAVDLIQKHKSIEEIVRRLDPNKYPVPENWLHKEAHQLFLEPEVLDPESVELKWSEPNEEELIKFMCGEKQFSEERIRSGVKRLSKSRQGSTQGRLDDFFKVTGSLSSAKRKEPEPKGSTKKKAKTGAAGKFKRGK

flap endonuclease 1 (FEN1), endogenous (from UniProt P39748 1-380) (enzyme)
binding: binds
